No constants are given. Whether binding was seen depends on the method and setting. Some results given as binding are weak or reduced against the parent protein; the word gives no strength.
Key:
[1] = target: N-GCP3/MZT1 module of the X. laevis γ-TuRC (X. laevis (endogenous in egg extract)) (UniProt O73787+Q5U4M5); experiment: cryo-EM structure; single particle analysis of the native γ-TuRC affinity-purified from X. laevis egg extract; particles with stoichiometric NEDD1/N-GCP3/MZT1 grapnel; AlphaFold2 models flexibly fitted (MDFF) into the density; both purified
[2] = target: human Augmin TII N-clamp with HAUS8∆[1-138] (human) (UniProt Q9NVX0+Q7Z4H7+Q99871+Q9BT25); experiment: pull-down; PD1: SEC-purified POC5/centrin2 complex and AEC-purified EGFP-tagged Augmin N-clamp on GFP-binder beads, 50 mM HEPES pH 7.4, 150 mM NaCl, 0.1% Tween-20, 1 hr on ice, elution with hTEV protease; both purified

Chains of the proteins cited; added tags and fusions are not shown. Lines headed by an entry give the natural chain unless they say otherwise; changes in a name come on top.
UniProt Q9NVX0: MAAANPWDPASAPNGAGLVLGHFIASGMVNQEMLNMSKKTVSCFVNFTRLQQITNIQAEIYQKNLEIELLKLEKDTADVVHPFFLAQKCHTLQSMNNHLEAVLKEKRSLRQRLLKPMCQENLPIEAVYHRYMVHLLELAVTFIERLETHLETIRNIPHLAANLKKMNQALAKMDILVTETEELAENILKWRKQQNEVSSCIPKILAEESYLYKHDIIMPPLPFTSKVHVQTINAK
UniProt Q7Z4H7: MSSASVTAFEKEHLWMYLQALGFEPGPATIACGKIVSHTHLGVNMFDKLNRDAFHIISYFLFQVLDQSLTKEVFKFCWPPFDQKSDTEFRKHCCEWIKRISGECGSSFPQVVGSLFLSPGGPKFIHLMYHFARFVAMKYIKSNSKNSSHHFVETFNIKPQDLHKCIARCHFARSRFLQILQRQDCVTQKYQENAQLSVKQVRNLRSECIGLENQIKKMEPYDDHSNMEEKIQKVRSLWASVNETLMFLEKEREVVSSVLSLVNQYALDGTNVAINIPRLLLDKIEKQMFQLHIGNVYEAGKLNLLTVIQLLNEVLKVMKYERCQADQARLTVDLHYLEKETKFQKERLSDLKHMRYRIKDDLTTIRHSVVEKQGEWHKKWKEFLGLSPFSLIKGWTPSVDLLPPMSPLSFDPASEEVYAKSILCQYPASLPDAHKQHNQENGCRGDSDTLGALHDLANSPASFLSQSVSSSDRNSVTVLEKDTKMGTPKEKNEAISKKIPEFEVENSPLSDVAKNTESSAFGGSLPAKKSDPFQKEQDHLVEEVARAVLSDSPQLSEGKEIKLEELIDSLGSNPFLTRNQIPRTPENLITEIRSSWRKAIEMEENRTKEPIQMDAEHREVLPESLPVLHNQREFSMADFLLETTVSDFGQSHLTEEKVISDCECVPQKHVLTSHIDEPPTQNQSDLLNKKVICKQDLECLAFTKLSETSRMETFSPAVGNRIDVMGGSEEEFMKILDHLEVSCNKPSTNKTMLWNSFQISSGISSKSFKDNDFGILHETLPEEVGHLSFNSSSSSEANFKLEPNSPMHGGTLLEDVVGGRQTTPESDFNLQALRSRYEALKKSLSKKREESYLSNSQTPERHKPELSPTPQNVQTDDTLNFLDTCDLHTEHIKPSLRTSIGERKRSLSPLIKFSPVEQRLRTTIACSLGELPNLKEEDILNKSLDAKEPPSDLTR
UniProt Q99871: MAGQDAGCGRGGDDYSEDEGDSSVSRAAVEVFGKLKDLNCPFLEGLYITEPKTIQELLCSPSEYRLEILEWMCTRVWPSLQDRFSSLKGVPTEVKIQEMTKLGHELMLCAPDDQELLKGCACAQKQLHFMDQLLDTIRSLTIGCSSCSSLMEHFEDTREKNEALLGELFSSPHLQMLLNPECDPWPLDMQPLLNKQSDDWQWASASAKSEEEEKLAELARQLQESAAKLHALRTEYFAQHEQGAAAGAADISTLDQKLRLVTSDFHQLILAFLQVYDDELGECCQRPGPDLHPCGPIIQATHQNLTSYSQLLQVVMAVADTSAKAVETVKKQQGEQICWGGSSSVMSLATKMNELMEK
UniProt Q9BT25: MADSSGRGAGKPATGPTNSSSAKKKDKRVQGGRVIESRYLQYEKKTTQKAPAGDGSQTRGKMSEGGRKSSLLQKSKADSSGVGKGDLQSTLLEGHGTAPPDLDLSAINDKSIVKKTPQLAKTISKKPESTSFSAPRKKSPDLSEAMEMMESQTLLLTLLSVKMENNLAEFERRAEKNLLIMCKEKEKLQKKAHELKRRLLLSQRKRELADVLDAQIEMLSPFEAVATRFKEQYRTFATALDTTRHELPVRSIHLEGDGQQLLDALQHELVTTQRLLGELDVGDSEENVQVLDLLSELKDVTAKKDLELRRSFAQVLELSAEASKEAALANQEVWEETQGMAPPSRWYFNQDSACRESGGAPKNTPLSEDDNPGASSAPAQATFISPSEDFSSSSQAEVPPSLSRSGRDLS
UniProt Q8NA72: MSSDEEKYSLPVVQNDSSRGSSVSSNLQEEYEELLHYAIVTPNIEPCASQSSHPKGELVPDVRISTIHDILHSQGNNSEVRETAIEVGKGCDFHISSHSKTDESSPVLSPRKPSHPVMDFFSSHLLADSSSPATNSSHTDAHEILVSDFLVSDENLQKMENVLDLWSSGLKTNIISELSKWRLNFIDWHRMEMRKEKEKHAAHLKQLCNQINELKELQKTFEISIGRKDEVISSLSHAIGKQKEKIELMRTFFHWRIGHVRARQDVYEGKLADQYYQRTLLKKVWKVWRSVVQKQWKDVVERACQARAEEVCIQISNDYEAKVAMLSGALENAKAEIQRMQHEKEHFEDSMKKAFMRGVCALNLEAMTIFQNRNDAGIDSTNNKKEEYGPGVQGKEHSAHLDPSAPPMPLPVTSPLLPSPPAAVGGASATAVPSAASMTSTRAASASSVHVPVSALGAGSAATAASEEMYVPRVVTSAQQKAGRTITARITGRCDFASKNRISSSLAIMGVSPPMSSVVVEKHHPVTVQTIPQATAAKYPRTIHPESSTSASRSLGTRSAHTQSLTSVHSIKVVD

| binding [1] | binding [2] | Substance |
| --- | --- | --- |
| binds |  | N-GCP3/MZT1 module of the X. laevis γ-TuRC (from UniProt O73787 1-906; Q5U4M5 1-72) (complex) |
|  | binds | human POC5-HA-TEV-2×FLAG/Centrin2 complex (from UniProt Q8NA72 1-575; P41208 1-172) |
